In patent US8669291B2, “Phenyl substituted cycloalkylamines as monoamine reuptake inhibitors” (Sunovion Pharmaceuticals Inc., priority 2007, dated 2014):
At least one structure is not confirmed: it was looked up by name or label, or the drawing left a doubt.

The chains behind the UniProt entries cited, without tags or fusion partners.
UniProt Q60857, whole entry: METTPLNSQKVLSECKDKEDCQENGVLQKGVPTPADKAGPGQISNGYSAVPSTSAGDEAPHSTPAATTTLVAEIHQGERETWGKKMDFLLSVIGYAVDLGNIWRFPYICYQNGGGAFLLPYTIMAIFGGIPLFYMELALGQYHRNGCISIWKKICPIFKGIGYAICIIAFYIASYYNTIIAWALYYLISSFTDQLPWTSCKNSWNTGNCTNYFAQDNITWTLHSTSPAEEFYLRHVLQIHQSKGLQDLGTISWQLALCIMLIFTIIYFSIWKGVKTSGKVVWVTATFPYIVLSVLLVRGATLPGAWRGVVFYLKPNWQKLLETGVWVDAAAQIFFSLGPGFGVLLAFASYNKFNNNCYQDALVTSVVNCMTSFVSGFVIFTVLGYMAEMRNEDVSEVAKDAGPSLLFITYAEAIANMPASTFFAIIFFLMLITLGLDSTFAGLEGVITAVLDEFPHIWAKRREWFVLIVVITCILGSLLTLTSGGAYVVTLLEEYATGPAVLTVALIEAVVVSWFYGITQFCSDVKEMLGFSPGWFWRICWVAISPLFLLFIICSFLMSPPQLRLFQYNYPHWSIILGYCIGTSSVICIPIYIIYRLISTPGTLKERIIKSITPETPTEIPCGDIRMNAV
UniProt O55192, whole entry: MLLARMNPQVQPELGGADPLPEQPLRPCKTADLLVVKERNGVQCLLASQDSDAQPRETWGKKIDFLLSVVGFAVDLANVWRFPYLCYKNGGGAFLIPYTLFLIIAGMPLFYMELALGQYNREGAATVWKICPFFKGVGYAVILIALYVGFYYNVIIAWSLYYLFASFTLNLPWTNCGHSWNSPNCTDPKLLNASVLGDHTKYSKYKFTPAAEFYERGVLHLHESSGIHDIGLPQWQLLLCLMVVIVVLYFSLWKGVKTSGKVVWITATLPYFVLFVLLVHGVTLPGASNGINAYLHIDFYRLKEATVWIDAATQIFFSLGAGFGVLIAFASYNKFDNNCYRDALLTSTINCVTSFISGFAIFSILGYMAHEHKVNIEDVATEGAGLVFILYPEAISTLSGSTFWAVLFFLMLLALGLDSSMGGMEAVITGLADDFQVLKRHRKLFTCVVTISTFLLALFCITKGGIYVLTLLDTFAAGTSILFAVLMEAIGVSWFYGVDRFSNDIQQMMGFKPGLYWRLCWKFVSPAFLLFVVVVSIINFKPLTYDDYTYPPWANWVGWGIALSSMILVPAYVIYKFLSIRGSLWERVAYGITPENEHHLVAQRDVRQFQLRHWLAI
UniProt Q61327, whole entry: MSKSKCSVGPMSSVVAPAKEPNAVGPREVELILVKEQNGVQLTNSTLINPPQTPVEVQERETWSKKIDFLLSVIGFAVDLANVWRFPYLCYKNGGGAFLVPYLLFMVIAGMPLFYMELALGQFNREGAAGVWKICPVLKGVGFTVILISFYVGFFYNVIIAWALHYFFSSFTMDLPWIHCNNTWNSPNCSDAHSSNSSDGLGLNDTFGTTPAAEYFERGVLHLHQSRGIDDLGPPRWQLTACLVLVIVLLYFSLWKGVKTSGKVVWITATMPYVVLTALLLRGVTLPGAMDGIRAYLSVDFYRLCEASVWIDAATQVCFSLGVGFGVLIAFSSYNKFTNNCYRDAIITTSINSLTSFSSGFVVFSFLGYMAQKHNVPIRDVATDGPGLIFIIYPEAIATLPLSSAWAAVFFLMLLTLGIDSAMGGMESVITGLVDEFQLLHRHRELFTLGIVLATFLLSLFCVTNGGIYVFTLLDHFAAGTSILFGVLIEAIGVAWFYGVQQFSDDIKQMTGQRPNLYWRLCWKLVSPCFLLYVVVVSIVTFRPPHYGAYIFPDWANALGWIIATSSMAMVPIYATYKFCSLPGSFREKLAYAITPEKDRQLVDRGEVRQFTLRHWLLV

Experiments:
5-HT Transporter (SERT) = target: T1, 5-HT Transporter (SERT) (Mus musculus, UniProt Q60857); assay: ex vivo [3H] citalopram binding to SERT sites in mouse brain; conditions: mice, 60 minutes after treatment, cortex
T1 construct: Cortical membranes (400 μL; equivalent to 1.25 mg wet weight of tissue/tube); from tissue; host or cells: frontal cortex of C57BL/6 mice
Protocol: (§1) Receptor occupancy of central noradrenaline (NA), 5-HT and dopamine (DA) transporter sites following peripheral administration of compounds was determined using [^3H] nisoxetine, [^3H] citalopram and [^3H] WIN 35428 binding, respectively. Liquid scintillation counting was used to quantify the radioactivity.
(§2) C57BL/6 mice (25-30 g) were dosed orally with either vehicle or compound at 4 dose levels. Mice were sacrificed 60 minutes after treatment. Whole brains were removed and cortex and striata dissected out before being frozen on dry ice. The brain tissue was stored at −20° C. until the day of the assay. The cortex from each hemisphere was frozen separately. One was used to determine occupancy of NA transporter sites and the other occupancy of 5-HT transporter sites. Striatum was used to determine occupancy of DA transporter sites.
(§3) Frontal cortex from each hemisphere or striata was homogenized individually in ice-cold assay buffer using a tight fitting glass/Teflon homogenizer and used immediately in the binding assay.
Cortical membranes (400 μL; equivalent to 1.25 mg wet weight of tissue/tube) were incubated with 50 μl of [^3H] citalopram at a single concentration of 1.3 nM and either 50 μl of buffer (total binding) or 50 μl of paroxetine (0.5 μM; non-specific binding) for 1 h at 27° C. For each animal, three tubes were used for the determination of total binding and three tubes were used for the determination of non-specific binding.
(§4) Membrane bound radioactivity was recovered by filtration under vacuum through Skatron 11731 filters, presoaked in 0.5% PEI, using a Skatron cell harvester. Filters were rapidly washed with ice-cold phosphate buffer and radioactivity (dpm) was determined by liquid scintillation counting (1 mL Packard MV Gold scintillator).
(§5) A value for specific binding (dpm) was generated by the subtraction of mean non-specific binding (dpm) from mean total binding (dpm) for each animal. Data are presented as mean specific binding (dpm) and as a percentage of the vehicle-treated control taken as 100%.

[1] = target: T2, Norepinephrine Transporter (NET) (Mus musculus, UniProt O55192); assay: ex vivo [3H] nisoxetine binding to NET sites in mouse brain; conditions: mice, 60 minutes after treatment, cortex
T2 construct: Cortical membranes (400 μL; equivalent to 6.0 mg wet weight of tissue/tube); from tissue; host or cells: frontal cortex of C57BL/6 mice
Protocol: as §1, §2, §3
Cortical membranes (400 μL; equivalent to 6.0 mg wet weight of tissue/tube) were incubated with 50 μL of [^3H] nisoxetine at a single concentration of 0.6 nM and either 50 μL of buffer (total binding) or 50 μL of mazindol (1 μM; non-specific binding) for 4 h at 4° C. For each animal, three tubes were used for the determination of total binding and three tubes were used for the determination of non-specific binding.
as §4, §5

mice = assay: Mouse Tail Suspension Test; type: in vivo; conditions: oral
Protocol: The method, which detects antidepressant activity, follows that described by Stéru et al (Psychopharmacology, 85: 367-370 (1985)). Rodents, suspended by the tail, rapidly become immobile. Antidepressants decrease the duration of immobility.
The behavior of the animal was recorded automatically for 5 minutes using a computerized device (Med-Associates Inc.) similar to that developed by Stéru et al (Prog. Neuropsychopharmacol. Exp. Psychiatry 11: 659-671 (1987)). Ten to twelve mice were tested in each group. Compounds were typically evaluated at 3 doses (1-30 mg/kg), administered orally one time: 30-60 minutes before the test, and compared with a vehicle control group. Desipramine (100 mg/kg), administered under the same experimental conditions, was used as the positive reference substance.
Data were analyzed by one way analysis of variance (ANOVA) followed by post-hoc comparisons where appropriate. An effect was considered significant if p<0.05. Data are represented as the mean and standard error to the mean (s.e.m).

DA Transporter (DAT) = target: T3, DA Transporter (DAT) (Mus musculus, UniProt Q61327); assay: ex vivo [3H] WIN 35428 binding to DAT sites in mouse brain; conditions: mice, 60 minutes after treatment, striatum
T3 construct: Striatal membranes (200 μL; equivalent to 2 mg wet weight of tissue/tube); from tissue; host or cells: striatum of C57BL/6 mice
Protocol: as §1, §2, §3
Striatal membranes (200 μL; equivalent to 2 mg wet weight of tissue/tube) were incubated with 25 μL of [^3H] WIN 35428 at a single concentration of 24 nM and either 25 μL of buffer (total binding) or 25 μL of GBR12935 (1 μM; non-specific binding) for 2 h at 4° C. For each animal, two tubes were used for the determination of total binding and two tubes for the determination of non-specific binding.
as §4, §5

In the case of `CN(C)C[C@@H]1CCCC[C@@]1(O)c1ccc(Cl)c(Cl)c1` (single isomer, unassigned) [Compound 2, cis-1-(3,4-dichlorophenyl)-2-((dimethylamino)methyl)cyclohexanol], the “Mean Specific Binding (dpm) ± S.E.M., SERT” value (from here on “Mean Specific Binding … SERT”) (5-HT Transporter (SERT); 1 mg/kg PO) is reported as 2926 ± 119 dpm, the “Mean Specific Binding … SERT” value (5-HT Transporter (SERT); 3 mg/kg PO) is reported as 3330 ± 176 dpm and the “Mean Specific Binding … SERT” value (5-HT Transporter (SERT); 10 mg/kg PO) is reported as 3104 ± 131 dpm. The “Mean Specific Binding … SERT” value (5-HT Transporter (SERT); 30 mg/kg PO) was 3126 ± 204 dpm, the “Mean Specific Binding (dpm) ± S.E.M., NET” value (from here on “Mean Specific Binding … NET”) ([1]; 1 mg/kg PO) was 845 ± 44 dpm and the “Mean Specific Binding … NET” value ([1]; 3 mg/kg PO) was 583 ± 20 dpm. The “Mean Specific Binding … NET” value ([1]; 10 mg/kg PO) was 271 ± 12 dpm, the “Mean Specific Binding … NET” value ([1]; 30 mg/kg PO) was 115 ± 13 dpm and the “immobility in the TST” value (mice) was “dose-dependent decrease in immobility”. The “Mean Specific Binding (dpm) ± S.E.M., DAT” value (“Mean Specific Binding … DAT” for short) (DA Transporter (DAT); 1 mg/kg PO) was 36886 ± 1873 dpm, the “Mean Specific Binding … DAT” value (DA Transporter (DAT); 3 mg/kg PO) was 21744 ± 1050 dpm and the “Mean Specific Binding … DAT” value (DA Transporter (DAT); 10 mg/kg PO) was 8941 ± 305 dpm. The “Mean Specific Binding … DAT” value (DA Transporter (DAT); 30 mg/kg PO) was 4236 ± 538 dpm.
